# From PubChem BioAssay AID2685 (National Center for Advancing Translational Sciences (NCATS), 2010)
# The other results are listed elsewhere or left out. These are further read-outs of the screen, such as a control signal, another cell line or another target. No call is given for them. Compounds called inactive in the main read-out are mostly missing here. The note in brackets gives the kind of curve behind each potency; many fits are weak.
# Experiment: qHTS Assay for Lipid Storage Modulators in Drosophila S3 Cells;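 for cell number change: cells counted by Cell Tracker Red CMTPX staining in the red channel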
# Settings: BODIPY lipid droplet fluorescence, 18-24 h; for cell number change: measured here: cell count max response, cells fed with added oleic acid
# Outline: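 Drosophila S3 cells got compounds at several concentrations plus oleic acid (400 uM solution). Laser-scanning cytometry with 488 nm excitation read lipid droplets at 500-530 nm and cells at 575-640 nm. Percent activity was relative to 20 uM Triacsin C.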
# [1] = measured here: cell number channel AC50, cells fed with added oleic acid
# [2] = measured here: lipid fluorescence (Fed channel) AC50, cells fed with added oleic acid
Compound,cell number change,AC50 [1],AC50 [2]
Cc1[nH]c(=O)[nH]c(=O)c1S(=O)(=O)N1c2ccc(F)cc2CCC1C (stereo not drawn),-90.6%,"18.4 µM [falling, single point]",
Cc1ccc2nc(/C(C#N)=C\c3cc(C)n(-c4cccc([N+](=O)[O-])c4)c3C)[nH]c2c1,11.7%,"2.06 µM [rising, partial curve]",
CCOC(=O)c1cc(-c2cccs2)nc2c1c(C)nn2-c1ccccn1,-26.6%,"0.326 µM [rising, partial curve, poor fit]","0.461 µM [rising, partial curve, poor fit]"
O=C1OCC(CO)(CO)N=C1NNc1ccc(Cl)c(Cl)c1,11.7%,,"0.116 µM [rising, full curve]"
CCCCNC(=O)CSc1nc2c(sc(=S)n2-c2cc(Cl)ccc2OC)c(=O)[nH]1,60.6%,"29.1 µM [rising, single point]",
CCOc1ccccc1C1CC(=O)Nc2cc(OC)c(OC)cc21 (stereo not drawn),-33.6%,"13 µM [falling, single point]","29.1 µM [falling, single point]"
CCOC(=O)C1CCN(C(=S)Nc2ccc(Cl)cc2C)CC1,15.9%,,
Cc1cccc(Cn2c(Sc3nc(C)cs3)nc3c2c(=O)[nH]c(=O)n3C)c1,28.2%,"1.64 µM [rising, full curve, poor fit]",
O=C(NNc1ccccn1)c1ccc(Cl)nc1,5.79%,,
COc1ccc(OC)c(S(=O)(=O)NCCCN2CCCC2=O)c1,-14.4%,,"29.1 µM [rising, single point]"
O=C(NN(c1ccccc1)c1ccccc1)c1ccccc1F,-7.14%,,"0.00461 µM [falling, full curve, poor fit]"
COc1ccc(N2CC(C(=O)N[C@@H](C)C(=O)N3CCCCC3)CC2=O)cc1 (stereo partly drawn),7.26%,,
CCOC(=O)N1CCN(Cc2cn[nH]c2-c2cccc3ccccc23)CC1,5.05%,,"20.6 µM [rising, single point]"
Cc1cc(N/C=C/C(=O)c2cccs2)ccc1F,,"0.651 µM [rising, single point]",
COc1ccc2nc(N3CCCCC3)c(C#N)cc2c1,-44.7%,"13 µM [falling, partial curve]","1.3 µM [rising, full curve]"
C=CCOC(=O)C1=C(C)NC(C)=C(C(=O)OCC=C)C1c1ccco1,4.21%,,"0.92 µM [rising, full curve, poor fit]"
COc1ccc(C2c3c(n[nH]c3C)CC(C)(O)C2C(C)=O)cc1OC (stereo not drawn),20.8%,,
CCCCCCNc1cc2n(c(=O)n1)CCc1cc(OC)c(OC)cc1-2,9.37%,"0.731 µM [falling, single point]","18.4 µM [falling, single point]"
O=C(NCCO)c1c(O)c2cccc3c2n(c1=O)CC3,24.9%,,"1.16 µM [rising, partial curve]"
CC(=O)Nc1ccc(O)c(-c2nc3ccccc3s2)c1,-29.4%,,"32.6 µM [falling, single point]"
COc1ccc(/C=C/C(=O)c2c(C)nc3ccccn23)cc1,-13.9%,,"8.2 µM [falling, partial curve]"
O=C1C(=O)N(CCN2CCOCC2)C(c2ccccc2F)/C1=C(\O)c1ccc(S(=O)(=O)N2CCOCC2)cc1 (stereo not drawn),-1.28%,,
COc1ccc(CCC(=O)Nc2ccc(S(=O)(=O)Nc3nccc(C)n3)cc2)cc1,-5.56%,,"20.6 µM [rising, single point]"
CCOc1ccc(C(C)=O)cc1COc1ccc(-n2cnnn2)cc1,16.8%,,
Cc1cc(Cl)ccc1OCC(=O)OCC(=O)Nc1ccc(F)c([N+](=O)[O-])c1,-7.01%,,"29.1 µM [falling, single point]"
CC(C)CC1NC(=O)N(CC(=O)NC2CCCCC2)C1=O (stereo not drawn),-29.3%,"7.31 µM [falling, single point]",
CCn1c(SCC(=O)NNC(=O)c2ccc(C)cc2)nnc1C1CC1,17.1%,,"0.651 µM [rising, single point]"
Cc1nnc(NC(=O)CSc2nnc(Cc3cccn3C)n2-c2cccc(C(F)(F)F)c2)s1,-13.5%,"0.651 µM [falling, partial curve, poor fit]","14.6 µM [falling, partial curve]"
COc1ccc(-c2c(O)c(C#N)c(-c3ccccc3)n(-c3ccc(OC)cc3)c2=O)cc1,2.14%,,"0.731 µM [falling, partial curve, poor fit]"
COc1cccc(CNC(=O)c2ccc(N3CCOCC3)c([N+](=O)[O-])c2)c1,-19.7%,,"35.5 µM [falling, single point]"

# Reprinted at random: 2 compounds from above, in no set order.
Compound,cell number change,AC50 [1],AC50 [2]
O=C(NCCO)c1c(O)c2cccc3c2n(c1=O)CC3,24.9%,,"1.16 µM [rising, partial curve]"
O=C(NNc1ccccn1)c1ccc(Cl)nc1,5.79%,,
